Reference: PubChem BioAssay AID1259308 (NCATS, 2017)
Screen: 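Knock-downs that increase output of a recombinant reporter protein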 (primary screen). Cell system: human HEK293 embryonic kidney cells stably expressing firefly luciferase (HEK-CMV-Luc2-Hygro). Reagent: single siRNA against human genes, 0.8 pmol siRNA per well. Duration: 72 h. Measurement: 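Luciferase light (ONE-Glo) measured on one replicate plate set and viability (CellTiter-Glo) on the other, scaled to a negative control siRNA, with robust z-scores and luciferase per cell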. Scale: total luciferase, z-score and total luciferase, % of control: higher = more reporter protein produced; luciferase per cell, z-score: higher = more reporter output per viable cell; viable cells, % of control: higher = more viable cells. Call rule: 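An siRNA counts as active if its total luciferase robust z-score exceeds 3; genes with two or more such siRNAs out of three were retested with fresh siRNAs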. Calls: active = raised luciferase; inactive = no rise.
The whole screen tested about 59,000 reagents; shown is a part drawn at random. About 1,510 of them (2.6%) count as active. 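Calls use total luciferase alone and ignore viability, so some active siRNAs may act by altering cell number.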 The numbers tell different reagents against one gene apart.

| gene | reagent no. | total luciferase, z-score | total luciferase, % of control | luciferase per cell, z-score | viable cells, % of control | activity call |
| --- | --- | --- | --- | --- | --- | --- |
| OSBPL11 (oxysterol binding protein like 11) | 1 | -0.329 | 75.3 | -0.692 | 101 | inactive |
| OSBPL11 (oxysterol binding protein like 11) | 2 | 0.401 | 89.9 | 0.189 | 95.5 | inactive |
| OSBPL11 (oxysterol binding protein like 11) | 3 | 0.21 | 86.1 | 0.505 | 84.2 | inactive |
| CAV3 (caveolin 3) | 1 | -0.973 | 62.5 | -1.71 | 109 | inactive |
| CAV3 (caveolin 3) | 2 | -0.518 | 71.6 | -0.251 | 85.5 | inactive |
| CAV3 (caveolin 3) | 3 | -0.734 | 67.3 | -1.27 | 105 | inactive |
| GATA4 (GATA binding protein 4) | 1 | -0.343 | 75.1 | -0.434 | 94 | inactive |
| GATA4 (GATA binding protein 4) | 2 | -0.231 | 77.3 | -0.692 | 104 | inactive |
| GATA4 (GATA binding protein 4) | 3 | 1.7 | 116 | 1.31 | 91.7 | inactive |
| FNDC10 (fibronectin type III domain containing 10) | 1 | 3.45 | 150 | 2.34 | 90.9 | active |
| FNDC10 (fibronectin type III domain containing 10) | 2 | 0.601 | 93.8 | -0.235 | 112 | inactive |
| FNDC10 (fibronectin type III domain containing 10) | 3 | -2.01 | 41.8 | -2.42 | 88.5 | inactive |
| AKR1C4 (aldo-keto reductase family 1 member C4) | 1 | -2.13 | 39.6 | -1.34 | 62.9 | inactive |
| AKR1C4 (aldo-keto reductase family 1 member C4) | 2 | 0.189 | 85.6 | -0.525 | 110 | inactive |
| AKR1C4 (aldo-keto reductase family 1 member C4) | 3 | 1.95 | 121 | 1.27 | 96.6 | inactive |
| UBE2O (ubiquitin conjugating enzyme E2 O) | 1 | 0.0793 | 83.5 | -0.703 | 112 | inactive |
| UBE2O (ubiquitin conjugating enzyme E2 O) | 2 | 1.53 | 112 | 0.809 | 102 | inactive |
| UBE2O (ubiquitin conjugating enzyme E2 O) | 3 | 1.27 | 107 | 1.82 | 74.2 | inactive |
| OR5D13 (olfactory receptor family 5 subfamily D member 13) | 1 | 0.408 | 90 | 0.28 | 93.4 | inactive |
| OR5D13 (olfactory receptor family 5 subfamily D member 13) | 2 | -0.0939 | 80 | 0.127 | 86.5 | inactive |
| OR5D13 (olfactory receptor family 5 subfamily D member 13) | 3 | -0.854 | 64.9 | -1.15 | 98.2 | inactive |
| TAPBPL (TAP binding protein like) | 1 | 0.153 | 84.9 | 0.72 | 78.5 | inactive |
| TAPBPL (TAP binding protein like) | 2 | 0.401 | 89.9 | 0.412 | 90.1 | inactive |
| TAPBPL (TAP binding protein like) | 3 | -0.188 | 78.1 | -0.0116 | 87.6 | inactive |
| BCL2L14 (BCL2 like 14) | 1 | -0.963 | 62.7 | -0.055 | 71.1 | inactive |
| BCL2L14 (BCL2 like 14) | 2 | 0.421 | 90.3 | 0.052 | 99.5 | inactive |
| BCL2L14 (BCL2 like 14) | 3 | -0.797 | 66 | -1.41 | 107 | inactive |
| MID1 (midline 1) | 1 | -0.476 | 72.4 | -0.227 | 85.9 | inactive |
| MID1 (midline 1) | 2 | 1.3 | 108 | 2.21 | 67.2 | inactive |
| MID1 (midline 1) | 3 | -0.343 | 75.1 | 0.126 | 81.1 | inactive |
| CXXC5 (CXXC finger protein 5) | 1 | -0.213 | 77.6 | -0.177 | 90.9 | inactive |
| CXXC5 (CXXC finger protein 5) | 2 | -0.646 | 69 | -0.584 | 90 | inactive |
| CXXC5 (CXXC finger protein 5) | 3 | -0.27 | 76.5 | 0.273 | 79.6 | inactive |
| PLPPR2 (phospholipid phosphatase related 2) | 1 | -1.54 | 51.4 | -1.5 | 85.2 | inactive |
| PLPPR2 (phospholipid phosphatase related 2) | 2 | -0.161 | 78.7 | 0.675 | 73.6 | inactive |
| PLPPR2 (phospholipid phosphatase related 2) | 3 | -1.02 | 61.6 | -1.08 | 91.6 | inactive |
| RPL7P56 (ribosomal protein L7 pseudogene 56) | 1 | 0.254 | 86.9 | 1.58 | 64.1 | inactive |
| RPL7P56 (ribosomal protein L7 pseudogene 56) | 2 | -1.56 | 50.8 | -1.57 | 85.7 | inactive |
| RPL7P56 (ribosomal protein L7 pseudogene 56) | 3 | -3.41 | 14 | -3.94 | 44.2 | inactive |
